Source: the supplement of paper PMC12823440, “Inhibitors supercharge kinase turnover through native proteolytic circuits” (Nature, 2025)
Counter-ions that a name gives are not always drawn. This is one part of the list. The calls rarely recur for the same compound in another form.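 In K562 cells expressing nanoluciferase-fused kinases, luminescence was recorded at 4 h intervals between 2 and 18 h, normalized as percent of control with DMSO at 100% and a positive control at 0%. A significant (2 sigma) signal drop marks a time point as decreased. The authors' rule for a hit is not shown and takes in more than the number of time points.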

The chains behind the UniProt entries cited, without tags or fusion partners. Where a name states a change or a piece, a line headed by the entry shows the natural chain unless it says otherwise.
UniProt P29317, whole entry: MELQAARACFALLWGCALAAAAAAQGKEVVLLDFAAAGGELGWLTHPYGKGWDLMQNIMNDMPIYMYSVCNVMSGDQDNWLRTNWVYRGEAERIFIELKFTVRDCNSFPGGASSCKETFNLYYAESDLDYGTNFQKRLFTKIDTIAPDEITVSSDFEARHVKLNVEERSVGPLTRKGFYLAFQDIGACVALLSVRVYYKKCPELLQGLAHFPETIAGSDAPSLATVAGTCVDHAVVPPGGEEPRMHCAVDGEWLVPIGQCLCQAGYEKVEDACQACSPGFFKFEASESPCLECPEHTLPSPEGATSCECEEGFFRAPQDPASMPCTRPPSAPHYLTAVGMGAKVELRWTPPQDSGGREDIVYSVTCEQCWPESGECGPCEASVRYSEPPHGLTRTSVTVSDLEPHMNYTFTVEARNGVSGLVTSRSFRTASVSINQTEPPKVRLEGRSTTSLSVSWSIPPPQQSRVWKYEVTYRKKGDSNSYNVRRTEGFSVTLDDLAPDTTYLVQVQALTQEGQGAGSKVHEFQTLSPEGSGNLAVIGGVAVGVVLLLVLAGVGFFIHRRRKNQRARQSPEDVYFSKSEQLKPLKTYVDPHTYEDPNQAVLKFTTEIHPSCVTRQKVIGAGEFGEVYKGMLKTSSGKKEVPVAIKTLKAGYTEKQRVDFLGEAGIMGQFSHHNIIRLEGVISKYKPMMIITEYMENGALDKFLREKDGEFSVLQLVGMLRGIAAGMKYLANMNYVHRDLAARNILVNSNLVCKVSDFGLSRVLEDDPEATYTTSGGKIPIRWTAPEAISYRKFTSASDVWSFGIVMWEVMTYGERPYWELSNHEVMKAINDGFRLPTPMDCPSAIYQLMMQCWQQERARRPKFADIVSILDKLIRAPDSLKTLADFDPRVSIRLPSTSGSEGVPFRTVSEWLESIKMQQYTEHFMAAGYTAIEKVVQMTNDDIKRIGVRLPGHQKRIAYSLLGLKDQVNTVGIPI
UniProt P21860, whole entry: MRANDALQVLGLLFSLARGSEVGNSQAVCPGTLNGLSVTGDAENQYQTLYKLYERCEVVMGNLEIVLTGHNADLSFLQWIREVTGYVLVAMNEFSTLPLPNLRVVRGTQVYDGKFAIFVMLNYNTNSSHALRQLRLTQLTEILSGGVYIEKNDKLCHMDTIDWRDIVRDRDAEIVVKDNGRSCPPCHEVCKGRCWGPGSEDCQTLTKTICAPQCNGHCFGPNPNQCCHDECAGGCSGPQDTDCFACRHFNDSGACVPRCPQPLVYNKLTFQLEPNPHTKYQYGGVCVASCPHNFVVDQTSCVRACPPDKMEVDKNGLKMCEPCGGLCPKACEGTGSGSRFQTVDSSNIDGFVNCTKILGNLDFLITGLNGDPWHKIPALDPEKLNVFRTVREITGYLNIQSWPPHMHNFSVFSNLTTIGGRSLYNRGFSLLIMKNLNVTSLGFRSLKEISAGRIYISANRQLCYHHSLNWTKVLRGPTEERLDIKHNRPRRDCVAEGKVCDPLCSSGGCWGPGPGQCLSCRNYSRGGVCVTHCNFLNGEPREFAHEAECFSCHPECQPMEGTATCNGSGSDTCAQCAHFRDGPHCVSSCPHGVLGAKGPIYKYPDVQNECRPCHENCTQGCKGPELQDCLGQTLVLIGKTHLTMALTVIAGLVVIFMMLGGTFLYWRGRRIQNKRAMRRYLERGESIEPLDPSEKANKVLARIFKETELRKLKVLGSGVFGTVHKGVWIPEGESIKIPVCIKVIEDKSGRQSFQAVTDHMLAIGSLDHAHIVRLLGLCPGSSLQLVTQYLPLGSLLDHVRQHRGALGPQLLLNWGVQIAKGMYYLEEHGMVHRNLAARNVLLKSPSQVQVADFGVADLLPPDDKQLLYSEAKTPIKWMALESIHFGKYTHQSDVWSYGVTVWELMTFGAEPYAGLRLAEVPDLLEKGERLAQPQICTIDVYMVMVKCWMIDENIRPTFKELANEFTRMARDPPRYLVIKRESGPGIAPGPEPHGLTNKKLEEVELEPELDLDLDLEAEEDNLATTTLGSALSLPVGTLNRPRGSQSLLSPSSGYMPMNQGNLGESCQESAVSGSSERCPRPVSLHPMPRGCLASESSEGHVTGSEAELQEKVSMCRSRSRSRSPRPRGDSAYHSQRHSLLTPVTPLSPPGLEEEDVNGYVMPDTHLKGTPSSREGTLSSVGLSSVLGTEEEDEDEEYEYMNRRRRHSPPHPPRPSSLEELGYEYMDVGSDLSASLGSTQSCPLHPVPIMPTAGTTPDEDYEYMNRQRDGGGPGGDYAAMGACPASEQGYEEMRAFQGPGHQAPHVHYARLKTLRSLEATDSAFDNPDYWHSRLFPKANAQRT
UniProt Q15303, whole entry R711C: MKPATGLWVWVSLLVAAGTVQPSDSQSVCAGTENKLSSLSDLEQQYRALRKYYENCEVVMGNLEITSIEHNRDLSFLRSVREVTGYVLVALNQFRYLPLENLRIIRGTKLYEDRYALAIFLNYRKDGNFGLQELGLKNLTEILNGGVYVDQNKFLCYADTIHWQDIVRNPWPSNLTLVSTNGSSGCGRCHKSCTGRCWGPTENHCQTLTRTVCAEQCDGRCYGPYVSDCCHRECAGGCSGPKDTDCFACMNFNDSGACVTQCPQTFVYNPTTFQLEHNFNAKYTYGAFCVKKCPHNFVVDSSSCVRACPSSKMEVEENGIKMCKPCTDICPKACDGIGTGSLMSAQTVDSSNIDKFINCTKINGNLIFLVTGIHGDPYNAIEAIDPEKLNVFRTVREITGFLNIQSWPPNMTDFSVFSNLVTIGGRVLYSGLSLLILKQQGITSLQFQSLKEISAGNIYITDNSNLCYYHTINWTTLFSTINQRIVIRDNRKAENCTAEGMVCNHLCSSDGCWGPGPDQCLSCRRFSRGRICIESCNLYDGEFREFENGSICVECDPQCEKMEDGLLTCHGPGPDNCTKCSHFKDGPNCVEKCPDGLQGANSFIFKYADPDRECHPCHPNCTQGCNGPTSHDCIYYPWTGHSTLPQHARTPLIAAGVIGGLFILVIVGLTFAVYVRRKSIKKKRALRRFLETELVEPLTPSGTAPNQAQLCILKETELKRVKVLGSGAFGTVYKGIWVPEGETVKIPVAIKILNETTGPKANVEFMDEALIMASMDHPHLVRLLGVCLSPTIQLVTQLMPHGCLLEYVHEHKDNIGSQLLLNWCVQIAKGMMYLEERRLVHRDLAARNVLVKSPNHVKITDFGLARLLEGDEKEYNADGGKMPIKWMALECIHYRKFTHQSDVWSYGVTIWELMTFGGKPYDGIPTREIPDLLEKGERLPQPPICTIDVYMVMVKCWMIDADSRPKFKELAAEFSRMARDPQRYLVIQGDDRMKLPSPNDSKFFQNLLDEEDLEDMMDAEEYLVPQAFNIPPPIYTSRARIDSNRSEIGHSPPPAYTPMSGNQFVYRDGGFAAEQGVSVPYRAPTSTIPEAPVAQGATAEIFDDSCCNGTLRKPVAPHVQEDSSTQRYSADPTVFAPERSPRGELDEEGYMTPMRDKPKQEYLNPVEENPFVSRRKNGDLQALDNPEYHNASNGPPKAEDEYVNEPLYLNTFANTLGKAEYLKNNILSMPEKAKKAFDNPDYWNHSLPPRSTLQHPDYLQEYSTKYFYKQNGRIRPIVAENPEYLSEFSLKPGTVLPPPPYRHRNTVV
UniProt P21802, whole entry, looked up: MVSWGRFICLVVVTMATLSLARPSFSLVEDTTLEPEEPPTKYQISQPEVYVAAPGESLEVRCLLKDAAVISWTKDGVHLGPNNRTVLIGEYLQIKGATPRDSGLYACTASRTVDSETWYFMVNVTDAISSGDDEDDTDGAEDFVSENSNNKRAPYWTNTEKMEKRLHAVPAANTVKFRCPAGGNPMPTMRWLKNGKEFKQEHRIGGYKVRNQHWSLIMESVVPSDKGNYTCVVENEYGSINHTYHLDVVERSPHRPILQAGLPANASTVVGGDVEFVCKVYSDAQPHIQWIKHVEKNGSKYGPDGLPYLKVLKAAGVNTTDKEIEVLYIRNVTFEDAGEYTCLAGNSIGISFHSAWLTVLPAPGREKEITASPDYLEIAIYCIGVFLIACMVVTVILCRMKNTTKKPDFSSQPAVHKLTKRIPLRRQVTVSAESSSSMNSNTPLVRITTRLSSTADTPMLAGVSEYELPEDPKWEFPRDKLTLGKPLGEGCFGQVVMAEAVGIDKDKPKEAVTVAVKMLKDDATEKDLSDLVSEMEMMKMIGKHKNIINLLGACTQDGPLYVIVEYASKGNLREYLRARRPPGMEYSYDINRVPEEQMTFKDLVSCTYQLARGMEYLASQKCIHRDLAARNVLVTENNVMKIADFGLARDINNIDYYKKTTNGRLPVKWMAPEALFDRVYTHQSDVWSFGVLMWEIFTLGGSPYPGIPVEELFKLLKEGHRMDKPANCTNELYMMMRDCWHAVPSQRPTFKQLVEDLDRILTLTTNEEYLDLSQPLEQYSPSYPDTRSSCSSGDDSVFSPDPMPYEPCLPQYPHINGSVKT
UniProt P22607, whole entry, looked up: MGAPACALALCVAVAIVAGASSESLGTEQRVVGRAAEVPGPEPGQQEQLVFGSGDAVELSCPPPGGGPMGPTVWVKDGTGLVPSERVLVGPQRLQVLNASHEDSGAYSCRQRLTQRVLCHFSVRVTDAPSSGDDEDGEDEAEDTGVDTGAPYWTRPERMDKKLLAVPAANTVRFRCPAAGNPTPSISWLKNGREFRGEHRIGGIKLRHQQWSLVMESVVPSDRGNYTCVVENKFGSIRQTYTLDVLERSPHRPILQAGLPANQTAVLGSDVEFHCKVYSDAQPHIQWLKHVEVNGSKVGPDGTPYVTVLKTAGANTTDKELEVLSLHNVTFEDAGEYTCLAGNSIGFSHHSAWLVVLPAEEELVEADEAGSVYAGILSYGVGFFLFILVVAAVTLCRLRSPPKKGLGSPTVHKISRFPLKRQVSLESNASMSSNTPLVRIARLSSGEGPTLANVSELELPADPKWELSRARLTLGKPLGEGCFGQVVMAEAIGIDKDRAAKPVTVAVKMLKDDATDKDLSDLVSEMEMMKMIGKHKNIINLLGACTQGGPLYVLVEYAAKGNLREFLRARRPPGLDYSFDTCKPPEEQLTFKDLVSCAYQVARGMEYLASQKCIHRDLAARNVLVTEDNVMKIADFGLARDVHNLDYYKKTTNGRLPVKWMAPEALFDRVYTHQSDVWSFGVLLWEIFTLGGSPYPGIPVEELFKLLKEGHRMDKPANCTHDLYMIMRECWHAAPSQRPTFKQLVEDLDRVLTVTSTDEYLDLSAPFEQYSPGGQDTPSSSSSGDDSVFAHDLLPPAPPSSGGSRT
UniProt P14616: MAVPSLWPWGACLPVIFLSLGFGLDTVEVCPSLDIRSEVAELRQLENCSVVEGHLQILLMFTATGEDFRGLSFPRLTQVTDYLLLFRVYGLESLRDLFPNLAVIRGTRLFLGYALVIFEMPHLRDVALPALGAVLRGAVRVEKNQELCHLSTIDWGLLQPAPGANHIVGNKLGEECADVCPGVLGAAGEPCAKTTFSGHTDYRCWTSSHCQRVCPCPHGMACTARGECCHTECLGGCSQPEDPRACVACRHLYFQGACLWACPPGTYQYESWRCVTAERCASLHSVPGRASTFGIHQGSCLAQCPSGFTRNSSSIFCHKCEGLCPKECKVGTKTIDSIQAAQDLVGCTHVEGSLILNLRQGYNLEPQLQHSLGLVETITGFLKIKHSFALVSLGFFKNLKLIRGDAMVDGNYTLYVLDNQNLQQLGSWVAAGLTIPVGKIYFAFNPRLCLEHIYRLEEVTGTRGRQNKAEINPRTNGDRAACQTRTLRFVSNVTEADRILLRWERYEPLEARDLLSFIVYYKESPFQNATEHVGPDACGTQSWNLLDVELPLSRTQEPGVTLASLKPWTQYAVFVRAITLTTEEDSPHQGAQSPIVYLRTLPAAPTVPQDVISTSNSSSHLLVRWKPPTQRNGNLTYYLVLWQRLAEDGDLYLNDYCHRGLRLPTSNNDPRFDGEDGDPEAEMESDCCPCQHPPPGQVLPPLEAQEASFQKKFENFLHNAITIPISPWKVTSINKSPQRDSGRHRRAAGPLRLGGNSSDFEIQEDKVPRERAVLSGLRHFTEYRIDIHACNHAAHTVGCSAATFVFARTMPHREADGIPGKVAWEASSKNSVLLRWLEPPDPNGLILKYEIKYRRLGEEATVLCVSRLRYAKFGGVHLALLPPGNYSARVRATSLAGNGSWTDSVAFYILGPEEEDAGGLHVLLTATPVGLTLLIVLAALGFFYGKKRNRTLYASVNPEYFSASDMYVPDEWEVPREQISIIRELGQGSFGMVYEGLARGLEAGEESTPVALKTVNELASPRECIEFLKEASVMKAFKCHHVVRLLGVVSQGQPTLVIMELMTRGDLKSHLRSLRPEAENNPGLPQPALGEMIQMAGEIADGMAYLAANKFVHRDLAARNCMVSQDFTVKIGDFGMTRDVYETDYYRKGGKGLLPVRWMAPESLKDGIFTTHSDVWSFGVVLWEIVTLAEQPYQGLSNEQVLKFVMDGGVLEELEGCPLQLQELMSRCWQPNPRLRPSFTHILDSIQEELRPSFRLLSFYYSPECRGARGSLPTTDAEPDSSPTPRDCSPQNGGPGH

What was measured:
Assay in all cases: kinase-Nluc reporter destabilization hit call (1 = scored as downregulated) (binary); higher = compound decreases kinase abundance
Conditions in all cases: K562; 2-18 h
[1] = molecular target: EGFR (UniProt P00533)
[2] = molecular target: EGFR_G719S (UniProt P00533)
[3] = molecular target: EGFR_G719S_T790M (UniProt P00533)
[4] = molecular target: EGFR_L718V (UniProt P00533)
[5] = molecular target: EGFR_L858R (UniProt P00533)
[6] = molecular target: EGFR_L861Q (UniProt P00533)
[7] = molecular target: EGFR_T790M (UniProt P00533)
[8] = molecular target: EPHA2 (UniProt P29317)
[9] = molecular target: ERBB3 (UniProt P21860)
[10] = molecular target: ERBB4_R711C (clone: ERBB4_mut) (UniProt Q15303)
[11] = molecular target: ERN1 (UniProt O75460)
[12] = molecular target: FGFR1 (UniProt P11362)
[13] = molecular target: FGFR2 (UniProt P21802)
[14] = molecular target: FGFR3 (UniProt P22607)
[15] = molecular target: FGR (UniProt P09769)
[16] = molecular target: FLT3 (UniProt P36888)
[17] = molecular target: FYN (UniProt P06241)
[18] = molecular target: GSK3A (UniProt P49840)
[19] = molecular target: HER2 (UniProt P04626)
[20] = molecular target: INSRR (UniProt P14616)

Measured: kinase-Nluc reporter destabilization hit call

CNC(=O)c1ccc(-c2cnc3ncc(Cc4ccc5ncccc5c4)n3n2)cc1F [Capmatinib] (10 µM)
inactive: [1] 0 | [2] 0 | [3] 0 | [4] 0 | [5] 0 | [6] 0 | [7] 0 | [8] 0 | [9] 0 | [10] 0 | [11] 0 | [12] 0 | [13] 0 | [14] 0 | [15] 0 | [16] 0 | [17] 0 | [18] 0 | [19] 0 | [20] 0

CNC[C@@H](NC(=O)c1ccc(-c2nc([C@H]3CC[C@H](O)[C@@H](F)C3)cnc2N)cc1F)c1cc(F)cc(Br)c1 [Rineterkib] (10 µM)
inactive: [1] 0 | [2] 0 | [3] 0 | [4] 0 | [5] 0 | [6] 0 | [7] 0 | [8] 0 | [9] 0 | [10] 0 | [11] 0 | [12] 0 | [13] 0 | [14] 0 | [15] 0 | [16] 0 | [17] 0 | [18] 0 | [19] 0 | [20] 0

Cc1c(C(=O)Nc2ccc(Oc3ccnc4cc(OCC(C)(C)O)ccc34)c(F)c2)c(=O)n(-c2ccccc2)n1C [Ningetinib Tosylate] (10 µM)
inactive: [1] 0 | [2] 0 | [3] 0 | [4] 0 | [5] 0 | [6] 0 | [7] 0 | [8] 0 | [9] 0 | [10] 0 | [11] 0 | [12] 0 | [13] 0 | [14] 0 | [15] 0 | [16] 0 | [17] 0 | [18] 0 | [19] 0 | [20] 0

CC(C)=C/C=C1\O[C@@H]2CC(C)=CC(=O)[C@@H]2[C@]1(C)O [Bisabolangelone] (10 µM)
inactive: [1] 0 | [2] 0 | [3] 0 | [4] 0 | [5] 0 | [6] 0 | [7] 0 | [8] 0 | [9] 0 | [10] 0 | [11] 0 | [12] 0 | [13] 0 | [14] 0 | [15] 0 | [16] 0 | [17] 0 | [18] 0 | [19] 0 | [20] 0

COc1cc2nccc(Oc3ccc(NC(=O)Nc4ccc(F)cc4F)c(F)c3)c2cc1OC (10 µM)
inactive: [1] 0 | [2] 0 | [3] 0 | [4] 0 | [5] 0 | [6] 0 | [7] 0 | [8] 0 | [9] 0 | [10] 0 | [11] 0 | [12] 0 | [13] 0 | [14] 0 | [15] 0 | [16] 0 | [17] 0 | [18] 0 | [19] 0 | [20] 0

CNC(=O)c1nnc(NC(=O)C2CC2)cc1Nc1cccc(-c2ncn(C)n2)c1OC [Deucravacitinib] (10 µM)
inactive: [1] 0 | [2] 0 | [3] 0 | [4] 0 | [5] 0 | [6] 0 | [7] 0 | [8] 0 | [9] 0 | [10] 0 | [11] 0 | [12] 0 | [13] 0 | [14] 0 | [15] 0 | [16] 0 | [17] 0 | [18] 0 | [19] 0 | [20] 0

O=C(O)/C=C/c1cc(Br)c(Br)c(Br)c1Br (10 µM)
inactive: [1] 0 | [2] 0 | [3] 0 | [4] 0 | [5] 0 | [6] 0 | [7] 0 | [8] 0 | [9] 0 | [10] 0 | [11] 0 | [12] 0 | [13] 0 | [14] 0 | [15] 0 | [16] 0 | [17] 0 | [18] 0 | [19] 0 | [20] 0

COC(=O)/C=C/c1ccc(O)c(OC)c1 [Ferulic acid methyl ester] (10 µM)
inactive: [1] 0 | [2] 0 | [3] 0 | [4] 0 | [5] 0 | [6] 0 | [7] 0 | [8] 0 | [9] 0 | [10] 0 | [11] 0 | [12] 0 | [13] 0 | [14] 0 | [15] 0 | [16] 0 | [17] 0 | [18] 0 | [19] 0 | [20] 0

COc1cc(OC)c(/C=C/S(=O)(=O)Cc2ccc(OC)c(NCC(=O)O)c2)c(OC)c1 [Rigosertib (sodium)] (10 µM)
inactive: [1] 0 | [2] 0 | [3] 0 | [4] 0 | [5] 0 | [6] 0 | [7] 0 | [8] 0 | [9] 0 | [10] 0 | [11] 0 | [12] 0 | [13] 0 | [14] 0 | [15] 0 | [16] 0 | [17] 0 | [18] 0 | [19] 0 | [20] 0

O=C(O)[C@]1(Cc2cccc(Nc3nccs3)n2)CC[C@@H](Oc2cccc(Cl)c2F)CC1 (2.5 µM)
inactive: [1] 0 | [2] 0 | [3] 0 | [4] 0 | [5] 0 | [6] 0 | [7] 0 | [8] 0 | [9] 0 | [10] 0 | [11] 0 | [12] 0 | [13] 0 | [14] 0 | [15] 0 | [16] 0 | [17] 0 | [18] 0 | [19] 0 | [20] 0

CC(C)(O)c1cc2nc(-c3cnc(N)nc3)nc(N3CCOCC3)c2s1 (2.5 µM)
inactive: [1] 0 | [2] 0 | [3] 0 | [4] 0 | [5] 0 | [6] 0 | [7] 0 | [8] 0 | [9] 0 | [10] 0 | [11] 0 | [12] 0 | [13] 0 | [14] 0 | [15] 0 | [16] 0 | [17] 0 | [18] 0 | [19] 0 | [20] 0

COc1cccc(Nc2ncnn3ccc(CN4CC[C@@H](N)[C@H](O)C4)c23)c1 (2.5 µM)
inactive: [1] 0 | [2] 0 | [3] 0 | [4] 0 | [5] 0 | [6] 0 | [7] 0 | [8] 0 | [9] 0 | [10] 0 | [11] 0 | [12] 0 | [13] 0 | [14] 0 | [15] 0 | [16] 0 | [17] 0 | [18] 0 | [19] 0 | [20] 0

Oc1ccc2ccccc2c1SSc1c(O)ccc2ccccc12 (10 µM)
inactive: [1] 0 | [2] 0 | [3] 0 | [4] 0 | [5] 0 | [6] 0 | [7] 0 | [8] 0 | [9] 0 | [10] 0 | [11] 0 | [12] 0 | [13] 0 | [14] 0 | [15] 0 | [16] 0 | [17] 0 | [18] 0 | [19] 0 | [20] 0

CNS(=O)(=O)Nc1nccc(Cc2c(C)c3ccc(Oc4ncccn4)cc3oc2=O)c1F (10 µM)
inactive: [1] 0 | [2] 0 | [3] 0 | [4] 0 | [5] 0 | [6] 0 | [7] 0 | [8] 0 | [9] 0 | [10] 0 | [11] 0 | [12] 0 | [13] 0 | [14] 0 | [15] 0 | [16] 0 | [17] 0 | [18] 0 | [19] 0 | [20] 0

3 compounds out of the list, arranged by count of non-hydrogen atoms, high to low:
COc1cc2nccc(Oc3ccc(NC(=O)Nc4ccc(F)cc4F)c(F)c3)c2cc1OC (10 µM)
inactive: [1] 0 | [2] 0 | [3] 0 | [4] 0 | [5] 0 | [6] 0 | [7] 0 | [8] 0 | [9] 0 | [10] 0 | [11] 0 | [12] 0 | [13] 0 | [14] 0 | [15] 0 | [16] 0 | [17] 0 | [18] 0 | [19] 0 | [20] 0

CNC(=O)c1ccc(-c2cnc3ncc(Cc4ccc5ncccc5c4)n3n2)cc1F [Capmatinib] (10 µM)
inactive: [1] 0 | [2] 0 | [3] 0 | [4] 0 | [5] 0 | [6] 0 | [7] 0 | [8] 0 | [9] 0 | [10] 0 | [11] 0 | [12] 0 | [13] 0 | [14] 0 | [15] 0 | [16] 0 | [17] 0 | [18] 0 | [19] 0 | [20] 0

Oc1ccc2ccccc2c1SSc1c(O)ccc2ccccc12 (10 µM)
inactive: [1] 0 | [2] 0 | [3] 0 | [4] 0 | [5] 0 | [6] 0 | [7] 0 | [8] 0 | [9] 0 | [10] 0 | [11] 0 | [12] 0 | [13] 0 | [14] 0 | [15] 0 | [16] 0 | [17] 0 | [18] 0 | [19] 0 | [20] 0

Later entries

CC(C)(C)S(=O)(=O)c1cc2c(Nc3ccc4scnc4c3)ccnc2cc1OCCOCCOCCOCCOCC(=O)Nc1cccc2c1CN(C1CCC(=O)NC1=O)C2=O (stereo not given) [PROTAC RIPK degrader-6] (10 µM)
inactive: [1] 0 | [2] 0 | [3] 0 | [4] 0 | [5] 0 | [6] 0 | [7] 0 | [8] 0 | [9] 0 | [10] 0 | [11] 0 | [12] 0 | [13] 0 | [14] 0 | [15] 0 | [16] 0 | [17] 0 | [18] 0 | [19] 0 | [20] 0

CN(C)C(=O)c1cc2cnc(Nc3ccc(NC(=O)C4(C(=O)Nc5ccc(F)cc5)CC4)cc3)nc2n1C1CCCC1 (2 µM)
active: [18] 1
inactive: [1] 0 | [2] 0 | [3] 0 | [4] 0 | [5] 0 | [6] 0 | [7] 0 | [8] 0 | [9] 0 | [10] 0 | [11] 0 | [12] 0 | [13] 0 | [14] 0 | [15] 0 | [16] 0 | [17] 0 | [19] 0 | [20] 0

O=c1cc(N2CCOCC2)oc2c1ccc1ccccc12 (2 µM)
inactive: [1] 0 | [2] 0 | [3] 0 | [4] 0 | [5] 0 | [6] 0 | [7] 0 | [8] 0 | [9] 0 | [10] 0 | [11] 0 | [12] 0 | [13] 0 | [14] 0 | [15] 0 | [16] 0 | [17] 0 | [18] 0 | [19] 0 | [20] 0

Cc1cc(Nc2ncc(Cl)c(Nc3ccccc3S(=O)(=O)C(C)C)n2)c(OC(C)C)cc1C1CCN(CC(=O)NCCNc2cccc3c2C(=O)N(C2CCC(=O)NC2=O)C3=O)CC1 (stereo not given) (10 µM)
inactive: [1] 0 | [2] 0 | [3] 0 | [4] 0 | [5] 0 | [6] 0 | [7] 0 | [8] 0 | [9] 0 | [10] 0 | [11] 0 | [12] 0 | [13] 0 | [14] 0 | [15] 0 | [16] 0 | [17] 0 | [18] 0 | [19] 0 | [20] 0
